# Out of some 360,000 compounds screened, about 9,100 (2.5%) were called active. Inconclusive results, whose numbers are uncertain, are shown with a selection of clear calls. Cut-off read from the data, not from the text of the source: active = max response below about -50%; inconclusive = no clear call, values can overlap the other calls; inactive = above that.
# Protein sequences, listed by entry. Tags and fused reporters are not part of them.
# UniProt P35462, whole entry, looked up: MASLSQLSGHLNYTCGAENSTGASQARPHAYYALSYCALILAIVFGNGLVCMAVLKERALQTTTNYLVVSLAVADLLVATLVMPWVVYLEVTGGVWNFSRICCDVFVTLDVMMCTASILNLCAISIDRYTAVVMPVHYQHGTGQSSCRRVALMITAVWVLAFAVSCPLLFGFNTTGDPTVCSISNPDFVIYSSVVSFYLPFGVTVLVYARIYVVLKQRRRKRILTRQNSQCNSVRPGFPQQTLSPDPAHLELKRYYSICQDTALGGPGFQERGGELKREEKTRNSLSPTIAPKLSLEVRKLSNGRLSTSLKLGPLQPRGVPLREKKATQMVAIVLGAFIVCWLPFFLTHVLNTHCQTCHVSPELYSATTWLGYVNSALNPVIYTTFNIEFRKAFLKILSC
# Biological target: D(3) dopamine receptor (Homo sapiens) (UniProt P35462)
# Assay: qHTS of D3 Dopamine Receptor Antagonist: qHTS
# Conditions: D3R cells, DiscoveRx beta-arrestin luminescence, antagonist mode; hits give low values
# Outline: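 Cells plated overnight at 1500 cells/well, then exposed to library compounds with dopamine controls for 90 minutes at 37 degrees C. DiscoveRx reagent added for 30–60 minutes at room temperature; luminescence read, quantitative HTS format.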
# % is set by controls: 0 for no effect and ±100 for the full control effect.
row,SMILES,"max response, negative = inhibition"
1,Cc1cc(SCC(=O)c2cccs2)nc2c(C)cccc12,inactive: 8.2%
2,COc1cccc(-c2nnc(SCC(=O)N3CC(C)CC(C)C3)o2)c1 (stereo not drawn),inconclusive: -30.7%
3,COc1cc2cc(C(=O)N3CCc4ccccc4C3)[nH]c2cc1OC,inactive: -13.9%
4,O=C(NC(Cc1c[nH]c2ccccc12)C(=O)Nc1ccc(F)c([N+](=O)[O-])c1)c1cccs1 (stereo not drawn),inactive: 0%
5,C/C(=N\NC(=S)NCc1ccccc1)c1ccc(C(C)(C)C)cc1,inconclusive: -34.7%
6,CCCn1c(SCC(=O)c2cc(C)n(C3CC3)c2C)n[nH]c1=O,inactive: -1.04%
7,OC(c1ccc(Cl)cc1)c1ncc(-c2cccc(C(F)(F)F)c2)[nH]1 (stereo not drawn),inconclusive: -39.8%
8,CC1CCN(C(=O)c2ccc(NS(=O)(=O)c3ccccc3)cc2)CC1,inactive: -4.76%
9,C[C@@H]1NC(=O)c2cc([N+](=O)[O-])cc(I)c2NCCCC[C@@H](C(N)=O)NC(=O)[C@H](CCC(=O)O)NC1=O,inconclusive: -38.9%
10,COc1ccc(OC)c(N=c2oc3cc(O)ccc3cc2C(N)=O)c1,inconclusive: -41.9%
11,Clc1cc(Br)ccc1OCCN1CCOCC1,inconclusive: -33.4%
12,CCN(CC)CCNc1nc2ccccc2n1C,inactive: -17.7%
13,N#Cc1c(C#N)c(SSc2c(C#N)c(C#N)c(N)n2-c2ccccc2)n(-c2ccccc2)c1N,inconclusive: -32.8%
14,Oc1ccc(C[C@H]2CNC(=S)N2CC2CCCN2C[C@H](Cc2ccc(O)cc2)N2C[C@H](Cc3ccccc3)N(CC3CCCCCC3)C2=S)cc1 (stereo partly drawn),inconclusive: -35.4%
15,O=C(CCNC(=O)C1CCN(S(=O)(=O)c2ccccc2)CC1)NCc1ccccn1,inactive: 4.27%
16,Cc1ccccc1Cn1cc(NC(=O)COc2ccccc2)cn1,inconclusive: -37.2%
17,CCC(=O)N1CCc2cc(Br)c(S(=O)(=O)CCC(=O)NCCc3ccccc3)cc21,inconclusive: -43.2%
18,N/C(=N\OC(=O)COc1ccccc1Cl)c1ccc(Cl)cc1,inconclusive: -44.3%
19,CCOc1cc(CNc2ccc3cn[nH]c3c2)ccc1OC,inactive: -9.76%
20,COc1cccc(NC(=S)N(CCN2CCCCC2)Cc2ccco2)c1,inconclusive: -44%
21,O=C1C=C(Nc2cccc3cccnc23)c2ccccc2C1=O,inconclusive: -31.7%
22,COC(=O)Oc1ccc(/C=C/C(=O)OC(C)C)cc1OC(=O)OC,inconclusive: -32.2%

# Molecules listed so far that contain a nitro group on carbon:
row,SMILES,"max response, negative = inhibition"
4,O=C(NC(Cc1c[nH]c2ccccc12)C(=O)Nc1ccc(F)c([N+](=O)[O-])c1)c1cccs1 (stereo not drawn),inactive: 0%
9,C[C@@H]1NC(=O)c2cc([N+](=O)[O-])cc(I)c2NCCCC[C@@H](C(N)=O)NC(=O)[C@H](CCC(=O)O)NC1=O,inconclusive: -38.9%

# Additional compounds.

row,SMILES,"max response, negative = inhibition"
1,CCCN(CCC)c1nc2c(C)cccn2c(=O)c1/C=C1/SC(=S)N(Cc2ccco2)C1=O,inconclusive: -48.2%
2,Nc1nnc(SCC(=O)Nc2cc(F)ccc2F)s1,inconclusive: -33.6%
3,O=C(/C=C/c1cccs1)N1CCCC1,inactive: 3.19%
4,Cc1nn(C(C)(C)C)c(C)c1/C=N/OC(=O)Nc1ccc(Cl)cc1,inactive: -18.2%
5,CSc1nnc(NC(=O)c2ccc(S(=O)(=O)N3CCOCC3)cc2)s1,active: -59.2%
6,Cc1cc(F)ccc1-c1cc(C(=O)NCc2cccs2)[nH]n1,active: -77%
7,COc1ccc(Cl)cc1-c1n[nH]c(=S)n1C1CCCCC1,active: -59.8%
8,COc1ccccc1C(=O)Nc1ccc(N2CCCCC2)cc1,inconclusive: -30.4%
9,CSc1nc2n(n1)C(c1cc(Br)ccc1F)C(C(=O)N(C)C)=C(C)N2 (stereo not drawn),active: -70.5%
10,O=C1C(Nc2ccccc2)=C/C(=N/S(=O)(=O)c2cccs2)c2ccccc21,active: -85.4%
11,CCn1ncc(Br)c1C(=O)Nc1cccc(F)c1,inactive: -6.06%
12,Cc1nc2c([nH]c3ccc(Br)cc32)s1,active: -101%
13,COc1ccc(Cl)cc1NC(=O)N1CCN(CCc2ccccc2)CC1,inconclusive: -41.3%
14,COc1ccc(Cl)cc1C(Nc1cccnc1)c1ccc2cccnc2c1O (stereo not drawn),inconclusive: -30.9%
15,CCOc1cc(/C=C/C(=O)NCCc2ccc(S(N)(=O)=O)cc2)ccc1OCC(C)C,inactive: 15.3%
16,CCCNC(=S)Nc1c(C)n(C)n(-c2ccccc2)c1=O,inconclusive: -30.4%
17,C[C@@H](C(=O)Nc1ccc2ccccc2c1)[C@H]1C[C@]1(C)[C@H](NC(=O)c1cccnc1)c1ccccc1,active: -50.1%
18,COc1ccc(C2NC(c3ccc(OC)cc3)C(c3ccccc3)C(=O)C2c2ccccc2)cc1 (stereo not drawn),inconclusive: -34.3%
19,O=C(Nc1cc2c3c(c1)CC(=O)N3CCC2)C1CC1,inactive: 2.53%
20,Cc1ccc(OCC(=O)N2CCCc3ccccc32)cc1,inconclusive: -48.9%
21,CSc1cccc(NC(=S)N2CCCN(Cc3cccc(Cl)c3)C2)c1,inconclusive: -35.2%
22,COC(=O)c1ccc(C2C(C(C)=O)=C(C)Nc3ncnn32)cc1 (stereo not drawn),active: -73.9%

# Part of the list above in order of length of the SMILES, low to high:
row,SMILES,"max response, negative = inhibition"
3,O=C(/C=C/c1cccs1)N1CCCC1,inactive: 3.19%
12,Cc1nc2c([nH]c3ccc(Br)cc32)s1,active: -101%
2,Nc1nnc(SCC(=O)Nc2cc(F)ccc2F)s1,inconclusive: -33.6%
20,Cc1ccc(OCC(=O)N2CCCc3ccccc32)cc1,inconclusive: -48.9%
19,CCOc1cc(CNc2ccc3cn[nH]c3c2)ccc1OC,inactive: -9.76%
8,COc1ccccc1C(=O)Nc1ccc(N2CCCCC2)cc1,inconclusive: -30.4%
19,O=C(Nc1cc2c3c(c1)CC(=O)N3CCC2)C1CC1,inactive: 2.53%
16,CCCNC(=S)Nc1c(C)n(C)n(-c2ccccc2)c1=O,inconclusive: -30.4%
7,COc1ccc(Cl)cc1-c1n[nH]c(=S)n1C1CCCCC1,active: -59.8%
18,N/C(=N\OC(=O)COc1ccccc1Cl)c1ccc(Cl)cc1,inconclusive: -44.3%
20,COc1cccc(NC(=S)N(CCN2CCCCC2)Cc2ccco2)c1,inconclusive: -44%
13,COc1ccc(Cl)cc1NC(=O)N1CCN(CCc2ccccc2)CC1,inconclusive: -41.3%
14,COc1ccc(Cl)cc1C(Nc1cccnc1)c1ccc2cccnc2c1O (stereo not drawn),inconclusive: -30.9%
22,COC(=O)Oc1ccc(/C=C/C(=O)OC(C)C)cc1OC(=O)OC,inconclusive: -32.2%
5,CSc1nnc(NC(=O)c2ccc(S(=O)(=O)N3CCOCC3)cc2)s1,active: -59.2%
4,Cc1nn(C(C)(C)C)c(C)c1/C=N/OC(=O)Nc1ccc(Cl)cc1,inactive: -18.2%
9,CSc1nc2n(n1)C(c1cc(Br)ccc1F)C(C(=O)N(C)C)=C(C)N2 (stereo not drawn),active: -70.5%
10,O=C1C(Nc2ccccc2)=C/C(=N/S(=O)(=O)c2cccs2)c2ccccc21,active: -85.4%
15,CCOc1cc(/C=C/C(=O)NCCc2ccc(S(N)(=O)=O)cc2)ccc1OCC(C)C,inactive: 15.3%
18,COc1ccc(C2NC(c3ccc(OC)cc3)C(c3ccccc3)C(=O)C2c2ccccc2)cc1 (stereo not drawn),inconclusive: -34.3%
1,CCCN(CCC)c1nc2c(C)cccn2c(=O)c1/C=C1/SC(=S)N(Cc2ccco2)C1=O,inconclusive: -48.2%
17,C[C@@H](C(=O)Nc1ccc2ccccc2c1)[C@H]1C[C@]1(C)[C@H](NC(=O)c1cccnc1)c1ccccc1,active: -50.1%

# (more compounds)

row,SMILES,"max response, negative = inhibition"
1,O=C(/C=C/c1ccco1)NC(=S)NNC(=O)c1ccco1,active: -84.3%
2,OC(COc1ccc(CNCc2cccnc2)cc1)CN1CCc2ccccc2C1 (stereo not drawn),active: -103%
3,CN(C)c1ccc(NC(=O)N2CCOCC2)cc1,inconclusive: -34.7%
4,COc1ccc(C(=O)Nc2cccc(/C=C(\CCC(=O)O)c3nc4ccccc4s3)c2)cc1,inactive: 5.33%
5,CC(C)n1ncc2c(C(=O)NCCOc3ccccc3F)cc(C3CC3)nc21,inconclusive: -36.8%
6,c1ccc2c(-c3ccc(OCCN4CCCCC4)cc3)c(-c3ccsc3)sc2c1,inconclusive: -44.4%
7,O=C(CNC(=O)c1ccccc1F)OCc1nc2ccccc2s1,inactive: 16.2%
8,C[C@H](CO)N1C[C@H](C)[C@@H](CN(C)S(C)(=O)=O)OCc2cnnn2CCCC1=O,inactive: -9.49%
9,Cc1noc(/C=C/c2ccccn2)c1[N+](=O)[O-],inactive: -14.1%
10,Cc1oc(-c2ccccc2F)nc1CN1CCC(C(=O)NCc2cccs2)CC1,active: -51.7%
11,Cc1ccc(NC(=O)/C=C/c2ccc([N+](=O)[O-])s2)c(C)c1,inconclusive: -46.4%
12,O=C1N[C@H](Cc2ccccc2)CO1,inconclusive: -32.7%
13,O=C(O)COc1ccc(NC(=O)c2ccc3c(c2)C(=O)N(CC2CCCO2)C3=O)cc1 (stereo not drawn),inconclusive: -37.4%
14,O=C(COc1ccc(/C=N/NC(=O)c2ccncc2)cc1)Nc1cccc([N+](=O)[O-])c1,inconclusive: -41.7%
15,Nc1ccc(CN2CCCCCC2)cc1,inconclusive: -34.9%
16,O=C(CCN1C(=O)c2ccncc2C1=O)NCc1ccc(Cl)cc1,inconclusive: -32.8%
17,Cn1c(=NCC(O)COc2ccccc2)sc2ccccc21 (stereo not drawn),inconclusive: -43.9%
18,CN(C)S(=O)(=O)N1CCCC(C(=O)c2ccc(C(F)(F)F)cc2)C1 (stereo not drawn),inconclusive: -34.1%
19,CC(=O)C1=C(c2ccccc2)N(C(C)=O)n2c(C)nnc2S1,inconclusive: -37.8%
20,CC1=CC(=O)C(C(C)=Nc2ccccc2Cl)C(=O)O1 (stereo not drawn),inactive: 1.78%
21,O=C(NCc1ccon1)c1ccc(OC2CCN(CCc3ccccc3)CC2)cc1,inconclusive: -40.5%
22,O=C(NCCS(=O)(=O)c1ccc(Br)cc1)c1ccc(Cl)cc1Cl,inactive: -7.9%

row,SMILES,"max response, negative = inhibition"
1,COc1ccc(NC(=O)c2cc([N+](=O)[O-])ccc2O)cc1,inactive: 14.9%
2,COc1ccc(CNC(=O)COC(=O)c2c(NC(C)=O)sc(C)c2C)cc1,inactive: 4.82%
3,CN1CCc2c(C#N)c(N3CCCCC3)nc(NCc3ccccc3)c2C1,inconclusive: -33.8%
4,C[C@H](NC(=O)c1ccccc1Cl)C(=O)OCC(=O)NNC(=O)c1cccs1,active: -55.1%
5,CC(=O)OCCNc1cc(N2CCN(C)CC2)c2noc3c2c1C(=O)c1ccccc1-3,active: -52.2%
6,COCCCn1c(N)c(-c2nc3ccccc3n2C)c2nc3ccccc3nc21,active: -87.9%
7,COc1ccc(/C=C/C(=O)NCC(=O)N/N=C/c2cc(Br)ccc2OC)cc1,active: -57.8%
8,O=C(CN1CCN(S(=O)(=O)c2ccc(F)cc2)CC1)Nc1ccccc1F,inactive: 0%
9,CCC(C)Sc1ccc([C@H]2N[C@@](Cc3ccccc3)(C(=O)OC)[C@H]3C(=O)N(CC)C(=O)[C@@H]23)cc1 (stereo partly drawn),inconclusive: -30.7%
10,COc1cc(OC)c(-n2cc(-c3ccc(OC)c(OC)c3)[nH]c2=S)cc1Cl,inconclusive: -33.4%
11,N#C/C(=C\c1ccc(C#N)cc1)C(=O)c1ccccc1,inconclusive: -33.7%
12,COc1ccccc1/C=C/CN1CCN(c2ccccc2)CC1,active: -64%
13,O=C(OCc1cn(Cc2ccccc2)nn1)c1ccccc1,inactive: 6.41%
14,Cc1ccc(N2C(=O)N3[C@H](c4ccc(F)cc4)[C@@H]4C(=O)N(C5CCCCC5)C(=O)[C@@H]4[C@]3(C)C2=O)cc1,inconclusive: -34.1%
15,CN(C)CCC=C1c2ccccc2C=Cc2ccccc21,active: -120%
16,CC1CC(N(C(=O)c2ccc(Cl)cc2)c2ccccc2)c2ccccc2N1C(=O)c1ccco1 (stereo not drawn),inconclusive: -33%
17,CCOc1ccc(-n2ccnc(SCC(=O)Nc3ccc(OC)cc3OC)c2=O)cc1,inactive: -14.5%
18,CC(=O)N1c2ccc(S(=O)(=O)NCCc3ccc(S(N)(=O)=O)cc3)cc2CC1C (stereo not drawn),inactive: -0.652%
19,O=C(Nc1ccc(C(O)(C(F)(F)F)C(F)(F)F)cc1)c1ccc(Cl)c([N+](=O)[O-])c1,inconclusive: -30.5%
20,CCCCNC(=O)C1(C)CCC(=O)N1CCc1c[nH]c2ccccc12 (stereo not drawn),inactive: 23.5%
21,CC(=O)Nc1ccc(NC(=O)COC(=O)c2ccc([N+](=O)[O-])o2)cc1,inactive: 4.97%
22,O=C(Nc1ccc(C(=O)OC[C@@H]2CCCN3CCCC[C@H]23)cc1)c1cccc(Br)c1,inconclusive: -49.5%
